23 compounds from the supplement of paper PMC8975748 can be followed below.

Each structure is given as a SMILES string. Structures can show the parent of a compound that is named as a salt. ± gives the standard deviation of the averaged measurements. Some of the results follow. These are raw signals, not scaled to a control.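 A single yeast strain with four plasmids, each encoding a fluorescent protein and an amino-acid or uracil biosynthesis gene, seeds the community. Stochastic plasmid loss yields mixed prototroph and auxotroph subpopulations. Fixed cells were counted via automated confocal fluorescence imaging; DMSO-treated wells were the vehicle reference.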

The experiment has as its system Saccharomyces cerevisiae BY4741 SeMeCo community. The experiment in a line: imaged cell count per well (cells); higher = more cells. The following applies: 10 µM; 24 h; SM minimal medium. How it is done:
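Same SeMeCo high-content imaging drug screen: Selleck FDA-approved drugs at 10 µM, 24 h in SM medium, 384-well plates, 3 replicates.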
Regarding `CN1[C@@H]2CC[C@H]1C[C@@H](OC(=O)c1c[nH]c3ccccc13)C2` [Tropisetron HCl], the “imaged cell count per well” value is 16100 ± 1900.

Take `O=C1Cc2cc(CCN3CCN(c4nsc5ccccc45)CC3)c(Cl)cc2N1` [Ziprasidone HCl]: the “imaged cell count per well” value is 26300 ± 1200.

As to `C[C@@H](NCCCc1cccc(C(F)(F)F)c1)c1cccc2ccccc12` [Cinacalcet HCl], the “imaged cell count per well” value was determined as 24600 ± 3200.

`COc1cc(Cc2cnc(N)nc2N)cc(OC)c1OC` [Trimethoprim]: the “imaged cell count per well” value worked out at 20900 ± 13000.

For the compound `CC(=O)OCC(COC(C)=O)OC(C)=O` [Triacetin], the “imaged cell count per well” value is 25800 ± 2500.

In the case of `Cc1c(Nc2ncccc2C(=O)O)cccc1C(F)(F)F` [Flunixin Meglumin], the “imaged cell count per well” value came to 22500 ± 2700.

In the case of `COC(=O)C1=C(C)NC(C)=C(C(=O)OC)C1c1ccccc1[N+](=O)[O-]` [Nifedipine], the “imaged cell count per well” value was 17600 ± 3600.

On to `CSCC1CN(/N=C/c2ccc([N+](=O)[O-])o2)C(=O)O1` (stereo not drawn) [Nifuratel], for which the “imaged cell count per well” value amounted to 24900 ± 3000.

As to `Clc1ccc2c(N3CCN(CCCN4CCN(c5ccnc6cc(Cl)ccc56)CC4)CC3)ccnc2c1` [Piperaquine phosphate], the “imaged cell count per well” value turned out to be 17700 ± 2000.

In the case of `CN(C)CCCN1c2ccccc2Sc2ccc(Cl)cc21` [Chlorpromazine HCl], the “imaged cell count per well” value was 23200 ± 2500.

Turning to `CN1CCN2c3ncccc3Cc3ccccc3C2C1` (stereo not drawn) [Mirtazapine], the “imaged cell count per well” value came to 24100 ± 7200.

For `Cc1nc2n(c(=O)c1CCN1CCC(c3noc4cc(F)ccc34)CC1)CCCC2` [Risperidone], the “imaged cell count per well” value came to 25800 ± 3300.

In the case of `NCCNc1ccc(NCCN)c2c1C(=O)c1ccncc1C2=O` [Pixantrone Maleate], the “imaged cell count per well” value was 20800 ± 3800.

Regarding `Clc1ccc(CSC(Cn2ccnc2)c2ccc(Cl)cc2Cl)cc1` (stereo not drawn) [Sulconazole Nitrate], the “imaged cell count per well” value is 2620 ± 910.

As to `O=C(O)C[C@H](O)C[C@H](O)/C=C/c1c(C2CC2)nc2ccccc2c1-c1ccc(F)cc1` [Pitavastatin Calcium], the “imaged cell count per well” value is 13300 ± 1900.

Turning to `O=C(Nc1c(Cl)cncc1Cl)c1ccc(OC(F)F)c(OCC2CC2)c1` [Roflumilast], the “imaged cell count per well” value came to 24300 ± 4700.

Consider `CO/N=C(\C(=O)N[C@@H]1C(=O)N2C(C(=O)[O-])=C(C[N+]3(C)CCCC3)CS[C@H]12)c1csc(N)n1` [Cefepime Dihydrochloride Monohydrate], for which the “imaged cell count per well” value turned out to be 25500 ± 7200.

As for `COCC(=O)Nc1cc(Sc2ccccc2)ccc1N=C(NC(=O)OC)NC(=O)OC` [Febantel], the “imaged cell count per well” value amounted to 30400 ± 2500.

Turning to `O=c1[nH]c2ccccc2n1CCN1CCN(c2cccc(C(F)(F)F)c2)CC1` [Flibanserin], the “imaged cell count per well” value was found to be 30300 ± 680.

For the compound `C[C@@H](O)[C@H]1C(=O)N2C(C(=O)[O-])=C(SC3Cn4cnc[n+]4C3)[C@H](C)[C@H]12` (stereo partly drawn) [Biapenem], the “imaged cell count per well” value is 28000 ± 2700.

On to `C#CCN(C)Cc1ccccc1` [Pargyline hydrochloride], for which the “imaged cell count per well” value was 19800 ± 5800.

Turning to `C[C@]12CC[C@@H]3c4ccc(O)cc4CC[C@H]3[C@@H]1CC[C@@H]2OC(=O)CCC1CCCC1` [Estradiol Cypionate], the “imaged cell count per well” value came out at 25100 ± 5800.

Consider `NC(=O)Cc1cccc(C(=O)c2ccccc2)c1N` [Nepafenac], for which the “imaged cell count per well” value is 28700 ± 5200.
